According to publication doi:10.1101/2024.06.27.601078:
Results are given in words; binding and its absence hold for the method and conditions named. For some of these results: Binding seen in cells or lysates may run through a third protein. Some binding calls cover weakened binding; strength is not graded here. For some of these results: Sequences can lack the tags named with a protein.

Legend:
[1] = target: T1, mouse TMEM16A (mTMEM16A, ac variant) tagged with 3XFlag (mouse) (UniProt Q8BHY3); experiment: co-IP
T1 sequence: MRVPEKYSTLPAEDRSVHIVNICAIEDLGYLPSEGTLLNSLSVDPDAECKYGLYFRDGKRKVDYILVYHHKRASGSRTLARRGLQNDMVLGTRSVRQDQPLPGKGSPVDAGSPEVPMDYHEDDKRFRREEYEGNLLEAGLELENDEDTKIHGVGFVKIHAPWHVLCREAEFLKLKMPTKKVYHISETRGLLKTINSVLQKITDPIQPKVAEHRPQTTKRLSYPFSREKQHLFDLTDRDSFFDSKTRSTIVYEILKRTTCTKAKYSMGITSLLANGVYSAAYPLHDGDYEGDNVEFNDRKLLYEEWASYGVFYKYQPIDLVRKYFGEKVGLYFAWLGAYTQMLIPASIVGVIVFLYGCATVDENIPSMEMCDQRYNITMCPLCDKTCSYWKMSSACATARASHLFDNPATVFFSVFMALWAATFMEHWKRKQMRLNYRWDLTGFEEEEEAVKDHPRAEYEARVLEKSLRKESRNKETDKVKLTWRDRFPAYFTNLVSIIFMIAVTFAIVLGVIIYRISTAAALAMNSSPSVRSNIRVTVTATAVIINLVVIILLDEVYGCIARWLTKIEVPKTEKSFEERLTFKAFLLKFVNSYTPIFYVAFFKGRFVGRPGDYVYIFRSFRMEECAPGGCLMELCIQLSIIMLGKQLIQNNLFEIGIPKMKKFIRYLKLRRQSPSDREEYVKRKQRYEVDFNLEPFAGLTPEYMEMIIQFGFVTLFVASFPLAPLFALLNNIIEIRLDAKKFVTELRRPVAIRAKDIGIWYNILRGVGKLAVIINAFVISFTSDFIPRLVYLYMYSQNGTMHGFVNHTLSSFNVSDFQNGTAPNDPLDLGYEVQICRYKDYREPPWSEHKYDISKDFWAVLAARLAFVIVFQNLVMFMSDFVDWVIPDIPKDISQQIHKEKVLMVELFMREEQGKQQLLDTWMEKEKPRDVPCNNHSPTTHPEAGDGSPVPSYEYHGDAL

TMEM16A-VC = target: T2, TMEM16A-VC (UniProt Q8BHY3); experiment: split reporter
T2 sequence: T1 sequence

[2] = target: T3, TMEM16A in isolated membranes (UniProt Q8BHY3); experiment: in-situ interaction with isolated membranes
T3 sequence: T1 sequence

Row | Substance | binding (TMEM16A-VC) | also measured
1 | FKBP12 (from UniProt P62942 1-108) |  | binding [1]: binds
2 | VN-FKBP12 (from UniProt P62942 1-108) | binds | 
3 | mRFP-FKBP12 (from UniProt P62942 1-108) | binds | 
4 | recombinant FKBP12 (from UniProt P62942 1-108) |  | binding [2]: binds
